Data published in publication PMC10470608, “Bacterial TANGO2 homologs are heme-trafficking proteins that facilitate biosynthesis of cytochromes c” (mBio, 2023).
Results are given in words; binding and its absence hold for the method and conditions named. Values belong to the binder of their own block, whether it stands above or below them.

Biological target: T25-HtpA (S. oneidensis)
Assay: two-hybrid; bacterial two-hybrid (BACTH, adenylate cyclase reconstitution) in E. coli BTH101: htpA in pKT25, target genes in pUT18; LB plates with 40 µg/mL X-gal and 0.5 mM IPTG, 30°C, 24 h; β-galactosidase activity

- binding: no binding
B1: T18-KatB (enzyme, UniProt Q8EHY4 1-486)
chain: MSQQYLTSQSGSPIADDQNSLSAGERGPLLLQDWHLIEKLAHFNRERIPERVVHAKGTGVYGTFTLTKDLSDYTIADHFNGVGKQTETFVRFSTVGGEMGSADAERDPRGFGLRFYTARGNHDIVGNNTPTFFLRDGIKFPDFIHTQKRNPLTNLKDPQAMWDFWSLNPEAMHQVTILMSDRGIPANYRQMHGYGSHTFSFWNAKGERFWVKFHFKSQQGVVNLSNEQADKLKGIDPDSSQRDMVVAITDGNFPRWTVNVQIMPEADANTYHINPFDLTKVWPHGDYPLIEIGVLELNRLPQNYFAEVEQVALAPSNLVPGVGASPDKMLQARLFAYADAQRYRIGANYNQLPVNCPHAAKANHHQRAGAMAGTQCPYHGSQTGGDASANYGPNSTIGALVEPANFAEPPLRLDGETARYSRYNQDDYTQAGNLYRIFSEEEKARLVATISGSLRQASMDVQQRMLAHFQKADADYGQRIKMALGL

- binding: no binding
B2: T18-CcmH, full-length (protein, UniProt Q8EK35 1-159)
chain: MRTLTKIIGGLVLLLSMVTTVMATPVDTYEFKSPENQKRALELAHSLRCPQCQNQNLIDSNSPVASDLRLEVFKMVDEGKGDDEIIEFMTSRYGEFVLYKPKMETKTYILWLGPVGLLLLGLIVGFIFIRKQRITGAAGLEISAEDQKALDALLKRDSK

- binding: no binding
B3: T18-CcmG, full-length (protein, UniProt Q8EK36 1-184)
chain: MKKLVLFIPLVIFLGMGVFLYKGLFLNPQKLDSALEGKPIPAFQLERLETPNEMITNEQLKGKVALLNVWATWCPSCKYEHPFLVMLKRQNILPIYGINYRDERIPALEELRRQGDPYNINIYDKDGRLGLDLGVYGAPESFIVDHNGIIRYRYAGPIDQRVWSETLYPMIQQLQAEAAKDGAA

- binding: no binding
B4: T18-CcmF, full-length (protein, UniProt Q8EK37 1-659)
chain: MIPELGHFSLIIGVAFAFLLTSVPLIGVARKDQYLVRYAWPLAYGMFFFIALSVVSLGYSFAVDDFSVAYVAHHSNSQLPIFFKIAAVWGGHEGSLLFWVFALSTWAASVALFSKGLEEVFTARVLAVLALIVIGFSLFMLLTSSPFERIFPMPAEGRDLNPMLQDVGLIFHPPMLYLGYVGFSVSFAFAIAALMSGHLDSAWARWSRPWTLAAWVFLTGGIALGSWWAYYELGWGGWWFWDPVENASFMPWLVGTALVHSLIVTEKRGAFRNWTVLLSIFAFSLSLLGTFIVRSGVLTSVHSFAADPSRGMFILLLLGLAIGGSLTLFAFRASEMSSPARFELKSKETMLLVCNVLLTVAAGTVLLGTLYPLLIDALGMGKISVGPPYFNAVFVPIVLVLFAFMGVGPIIRWKKSKAGELKRQLLVPALVSLVIGIVTPFIVDGAFNAWVACGIAAAAWIILATAKAAYSIVKPKDGEVSIARMGRSQLGMIIAHLGIAVSVIGATMVSNYSVEKSVRMGPGVSQELAGYTFKYLETKNVVGPNYTAQQGQIEIYKGDKLLTLLKPDRRQYNVRTMDMTEAGIDWGLFRDLYVTMGDPISSTEFAVRLNYKPFVRWLWFGAIFMMVGGFFAASDKRYRSKVAATVKPQAEKAKLATAQ

- binding: no binding
B5: T18-CcmD, full-length (protein, UniProt Q8EK43 1-66)
chain: MQFDSISDFFNMGGYAFYVWLAYGVTFFCLSTLIITSARQKRKVLIEIAKKMNREERLKETRSNKS

- binding: no binding
B6: T18-CcmI, full-length (protein, UniProt Q8EK38 1-415)
chain: MTTFWIFIALVMLISLTLIWIPHFRQQKLLRTEEAGVRKQTNLELFNERLATLEKELHEELLDQAEFDALKKELEISLLQDIKQASDDSLVNQIKPKSILWPSVMSVCLIAISGYLYQHLGAFENIGNTQAANPHAGMDTAQIMAQRVQMMEAQVQAEPENSQAWFSLGHAYISANQFDKAVAAFDKVIDLVGKHAELIGPKATALYYKAGQQMTPQVQALIDESLALDPQDPSTLLLVGMDAFFTAKYQKAINSWQTILDSNRPDVDRAALMNAIETANLRIQAETSGMPNDDVHKQAKVTSKSVSIAISISPELAAKAGPDDTIFVFARATEGPKVPLAATKVSAKSLPVTVTLDDSTGMGGDVKLSQTASVEVIAVLSKHGNIKPQAGDIQGKISKVNVGETANLVLDTQVQ

- binding: no binding
B7: T18-CcmC, full-length (protein, UniProt Q8EK42 1-248)
chain: MWKWLHPYADPERAYKLSGTLFPWFAILACLFITVGTVWGLLFAPTDYQQGDSYRIIFIHVPAASMSMAAYMGMATAAFIGLVWQVKLADWAAASIAPIGAVITFIALFTGATWGKPMWGTWWVWDARLTSELVLLFLYLGVISLYASFEDKVLAARAAGILAIVGVINIPIIKYSVEWWSSLHQPSTIRITEKSTMSSEMLYPLLINILGFGLMIGAITIVRFRAEILARNGMRPWVRELAKAEEVK

- binding: no binding
B8: T18-CcmE, full-length (protein, UniProt Q8EK44 1-161)
chain: MNPRRKKRLTLAVALIGGVAAIASLLLYALNSNLNLFYTPSEIVNGKTDTGVKPEAGQRIRVGGMVTVGSMVRDPNSLHVQFAVHDSLGGEILVTYDDLLPDLFREGQGIVAQGVLGEDGKLAATEVLAKHDENYMPPEVAEAMGQKHEKLDYSQQKSATQ

- binding: no binding
B9: T18-CcmA, full-length (protein, UniProt Q8EK40 1-216)
chain: MTNIISVDTLLSASKLTCIREERILFDELSFEINAGDIVQIEGPNGAGKTSLLRILAGLSRPYAGQTFYVNEDINRCRDEYNEDLLYLGHLAGVKSELTAEENLNFNLRISGYDDFDTSAILAKVNLSGFEEALAGHLSAGQHRRTALARLWHNDCKIWILDEPFTAIDKRGVEELEQLFIKHADNGGCVILTTHQDMGIIKDDRLRKIRLDYRFV

- binding: no binding
B10: T18-CcmB, full-length (protein, UniProt Q8EK41 1-228)
chain: MKRGISFTQAFFTLLQRDLKIAIRHRGDIFNPLLFFIMVVTLFPLGIGPEPQMLARIAPGIIWVAALLASMLSLERLFKADFSDGSLEQMLLSPQPLAILVLAKVLAHWLLTGVPLILIAPLLAVLLNLEANSYGALIATLALGTPVLSLLGAIGVALTVGLRKGGVLLSLLILPLYIPVLIFATSAIDAAGMNLPYDGQLAIIGAMLIGSLTLAPFAIGASLRVSTN
